This note sets out measurements from publication PMC6004359.

Amino acid sequences for entries named in this document (tags omitted). A change or cut given only in a name is not applied to a line headed by its entry. Chains listed by the source or under a name are the forms on record and can include a tag or linker. Residues count along the entry.
wild-type KIT (expressed in Ba/F3 cells) (P10721, residues 26-976): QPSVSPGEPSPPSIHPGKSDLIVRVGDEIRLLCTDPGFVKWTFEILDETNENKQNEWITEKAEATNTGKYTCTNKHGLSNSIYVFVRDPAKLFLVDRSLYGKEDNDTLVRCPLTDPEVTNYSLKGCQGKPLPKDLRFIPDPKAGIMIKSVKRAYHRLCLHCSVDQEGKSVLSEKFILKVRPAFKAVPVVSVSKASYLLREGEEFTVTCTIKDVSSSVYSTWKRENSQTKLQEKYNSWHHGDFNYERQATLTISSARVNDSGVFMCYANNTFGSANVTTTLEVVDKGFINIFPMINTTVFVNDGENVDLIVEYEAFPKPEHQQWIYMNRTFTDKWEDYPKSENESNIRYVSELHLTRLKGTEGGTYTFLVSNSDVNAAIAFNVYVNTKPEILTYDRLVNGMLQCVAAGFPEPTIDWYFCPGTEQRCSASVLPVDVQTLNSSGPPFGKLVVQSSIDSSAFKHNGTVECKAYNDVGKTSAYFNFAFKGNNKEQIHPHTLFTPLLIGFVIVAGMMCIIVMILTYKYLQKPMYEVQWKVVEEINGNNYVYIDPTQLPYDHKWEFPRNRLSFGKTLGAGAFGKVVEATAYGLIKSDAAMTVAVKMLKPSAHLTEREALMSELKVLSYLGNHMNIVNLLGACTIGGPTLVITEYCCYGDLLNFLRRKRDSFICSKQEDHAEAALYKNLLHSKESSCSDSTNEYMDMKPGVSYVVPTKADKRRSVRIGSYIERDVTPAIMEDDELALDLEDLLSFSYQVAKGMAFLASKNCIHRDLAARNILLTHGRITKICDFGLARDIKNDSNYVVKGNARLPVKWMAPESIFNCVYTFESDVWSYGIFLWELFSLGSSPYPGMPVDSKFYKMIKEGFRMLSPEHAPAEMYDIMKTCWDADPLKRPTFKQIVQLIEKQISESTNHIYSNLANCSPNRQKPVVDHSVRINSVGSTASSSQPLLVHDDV
KIT/D816V (expressed in Ba/F3 cells) (P10721, form named): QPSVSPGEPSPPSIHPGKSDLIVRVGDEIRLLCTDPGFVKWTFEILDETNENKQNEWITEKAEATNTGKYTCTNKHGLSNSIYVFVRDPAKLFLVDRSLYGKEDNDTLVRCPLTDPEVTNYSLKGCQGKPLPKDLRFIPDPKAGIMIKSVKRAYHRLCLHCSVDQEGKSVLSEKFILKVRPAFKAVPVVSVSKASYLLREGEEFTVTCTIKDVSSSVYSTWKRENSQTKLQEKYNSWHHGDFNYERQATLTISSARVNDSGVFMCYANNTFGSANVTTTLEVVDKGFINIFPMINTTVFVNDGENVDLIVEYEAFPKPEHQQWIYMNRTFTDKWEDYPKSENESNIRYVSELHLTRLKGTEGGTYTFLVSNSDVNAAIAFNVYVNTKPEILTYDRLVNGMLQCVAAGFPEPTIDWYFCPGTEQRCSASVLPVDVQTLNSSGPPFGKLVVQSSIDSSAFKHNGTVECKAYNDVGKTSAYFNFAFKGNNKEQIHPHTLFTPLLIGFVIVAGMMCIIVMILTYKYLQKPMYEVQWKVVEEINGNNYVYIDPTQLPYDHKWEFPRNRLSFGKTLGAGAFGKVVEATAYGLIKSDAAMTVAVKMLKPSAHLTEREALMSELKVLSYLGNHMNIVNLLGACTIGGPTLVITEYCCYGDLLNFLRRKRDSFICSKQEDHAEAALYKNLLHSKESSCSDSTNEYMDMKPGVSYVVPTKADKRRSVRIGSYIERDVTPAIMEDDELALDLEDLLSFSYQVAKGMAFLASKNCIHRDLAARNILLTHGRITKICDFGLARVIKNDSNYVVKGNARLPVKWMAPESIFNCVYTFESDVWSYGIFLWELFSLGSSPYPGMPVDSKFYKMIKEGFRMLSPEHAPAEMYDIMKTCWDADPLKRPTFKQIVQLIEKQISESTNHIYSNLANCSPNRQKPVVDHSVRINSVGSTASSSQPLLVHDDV

Experiment [1] concerns the target KIT/D816V (expressed in Ba/F3 cells) (human) (UniProt P10721). Put plainly: affinity purification with mass spectrometry; 900 million Ba/F3 cells expressing wild-type KIT or KIT/D816V, starved 4 h, SCF 100 ng/ml 2 min; lysis in 1% Triton X-100, 25 mM Tris pH 7.5, 150 mM NaCl, 5 mM EDTA, 10% glycerol; KitC1 antibody and protein G Dyna beads at 4 °C; SDS-PAGE, Coomassie, bands excised for mass spectrometry.

Experiment [2] concerns the target wild-type KIT (expressed in Ba/F3 cells) (human) (UniProt P10721). Described as above.

No constants are given. Whether binding was seen depends on the method and setting. In cells and extracts the contact can be indirect. These calls come from enrichment with a bait or labelling near it, and not all partners need be listed. For some assays here: No binding means not detected with the bait.

B1: XK-related protein 5 (XKR5), endogenous in Ba/F3 cells (protein, UniProt Q5GH66 1-676)
chain: MHAGLLGLSALLQAAEQSARLCSIVFYFATGRLLWGWLALSVLLPGFLVQALSFLWFRADGHQGQWWLAVLHLLQLGVWKRHWDSVATALWKGKEAPSWGQLHLQEADLSALRLLEALLQTGPHLLLQAYVFLASDFTDIVPGISALLSWSSLSWALVSYNRFLGIMKPGHHTMLWAALLCQQLWRMGMLGARVLSLVLFCRVYRVWVLVVGGAHWLVMTFWLVAQQSDIVESTCHWRLFNLLVGAVFILCYINFWDSPSRSRVASFYLVMLLENSILLLLATDFLQGVPGTSLWTVVGVLSGFLIGCASLVIYYSLLHPKSSDIQQSFMRKCCGPIEDNKPESEPPPRAVDPTGEMPDSSSWCQEESYELTSLDKAPSPEQNTAEVGLGEQRSGESSFFSHHHWLLLKLALKTGSVSRINAALGGDSPGCSCPPLLGSSQHCDLQRKPLFSHQDLPSSPCDPLTLEKGSEYVGAPKAEMESLETSSYLSFASELEDNATTQKPPATQEDSPKLAGSKADLAAQGKETEGPLQGKEGQESTTLYFSAAMDRTTSHQRGSPVVLRISHSETLVESRPGQPALPQAVTKPFPVTVANISPIPGRNFRPSAELPGRAPDSSECEEWKDAARDPSMQSSLPKMRLKAAEEPCFTSTPKSESIQRDYSCRDRVRQEMSFFI
As for B1, the results for the binding result in experiment [1] and in experiment [2] were “binds” and “no binding”, respectively.
